Measurements: article PMC11406361, “Several orphan solute carriers functionally identified as organic cation transporters: Substrates specificity compared with known cation transporters” (The Journal of Biological Chemistry, 2024)

Amino acid sequences for entries named in this document (tags omitted). A change or cut given only in a name is not applied to a line headed by its entry.
UniProt Q8N808: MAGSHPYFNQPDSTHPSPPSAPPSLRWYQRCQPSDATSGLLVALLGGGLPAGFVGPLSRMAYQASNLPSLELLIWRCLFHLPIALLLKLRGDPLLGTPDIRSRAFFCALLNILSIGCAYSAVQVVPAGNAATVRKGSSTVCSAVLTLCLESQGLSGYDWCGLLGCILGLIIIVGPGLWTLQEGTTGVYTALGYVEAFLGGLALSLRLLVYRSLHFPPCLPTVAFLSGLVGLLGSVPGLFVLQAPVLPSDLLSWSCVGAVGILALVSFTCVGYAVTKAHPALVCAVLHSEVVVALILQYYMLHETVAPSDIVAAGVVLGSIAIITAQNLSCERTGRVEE

Target: SLC35G3 (Homo sapiens, UniProt Q8N808)
Experiment: Uptake ratio screen, SLC35G3-overexpressing HEK293 over empty vector cells
Type: cell-based
Set-up: by amplifying the entire gene-of-interest within the HEK293 genome via a long-range PCR

COc1ccc(CC(C)NCC(O)c2ccc(O)c(NC=O)c2)cc1 (stereo not shown) [Formoterol]
Uptake data for SLC35G3, mean value (fold-increase over empty vector control): 1.01
